# Data from the supplement of paper PMC8728848.
# Some of the results follow.
# B1: LF82 (Escherichia coli) (protein)
# chain: ADWGPCRTASGDPFIFVTSFTKNIQNPTDNVTGQTYPDFYQWALGDKYSGVCECPSPNPTEARPTLYKTESTLAAGHNSTYFKITNNLEVSTRVYIANVGNVQVPFINKSNSQPGRECDQPTFGWTTGSKGQLSLYIAKPFVGEQNIPQTIIVSVFGTKKENVYSSVPISQVLLSGKVTVTQGCELAAGTSLDIDFGEYQAHDFKGRTGQPPQNVQKIQKELTFNCTNISDGVHIYLSLEGTPNAAYPSAISLGNADVGAVIEDGKGNILKPNDSNSLLEMNPGSLYEYVKRKVTTTITAYPVSTTGKLPAAGDYSGVATMHVELDGGGGGGGGGGATTDLGAKGTLKFSLKISQGHHHHHH
# Legend:
# Assay in all cases: glycan array binding signal (z-score within array); higher = stronger binding
# Conditions in all cases: glycan notation: IUPAC condensed, linker removed
# [1] = target: GlcNAc(a1-4)Gal(b1-3)GlcNAc
# Summary of the method: (§1)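 The binding signal is a Z-score computed within each array. Data were drawn from 3228 arrays in the Consortium for Functional Glycomics database, restricted to those with a known protein sequence. Scores were averaged over arrays of the same protein sequence at different concentrations or buffers, and over linkers, and negative values can be taken as non-binding.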
# [2] = target: GlcNAc(a1-4)Gal(b1-4)GalNAc
# Summary of the method: as §1
# [3] = target: GlcNAc(a1-4)Gal(b1-4)GlcNAc
# Summary of the method: as §1
# [4] = target: GlcNAc(a1-4)Gal(b1-4)GlcNAc(b1-3)Gal(b1-4)Glc
# Summary of the method: as §1
# [5] = target: GlcNAc(a1-4)Gal(b1-4)GlcNAc(b1-3)Gal(b1-4)GlcNAc
# Summary of the method: as §1
# [6] = target: GlcNAc(a1-4)Gal(b1-4)GlcNAc(b1-3)Gal(b1-4)GlcNAc(b1-3)Gal(b1-4)GlcNAc
# Summary of the method: as §1
# [7] = target: GlcNAc(a1-4)Gal(b1-4)GlcNAc(b1-3)Gal(b1-4)[Fuc(a1-3)]GlcNAc(b1-3)Gal(b1-4)[Fuc(a1-3)]GlcNAc
# Summary of the method: as §1
# [8] = target: GlcNAc(a1-6)Gal(b1-4)GlcNAc
# Summary of the method: as §1
# [9] = target: GlcNAc(b1-2)Gal(b1-3)GalNAc
# Summary of the method: as §1
# [10] = target: GlcNAc(b1-2)Man(a1-3)[GlcNAc(b1-2)Man(a1-6)]Man(b1-4)GlcNAc(b1-4)GlcNAc
# Summary of the method: as §1
# [11] = target: GlcNAc(b1-2)Man(a1-3)[GlcNAc(b1-2)Man(a1-6)]Man(b1-4)GlcNAc(b1-4)[Fuc(a1-6)]GlcNAc
# Summary of the method: as §1
# [12] = target: GlcNAc(b1-2)Man(a1-3)[GlcNAc(b1-4)][GlcNAc(b1-2)Man(a1-6)]Man(b1-4)GlcNAc(b1-4)GlcNAc
# Summary of the method: as §1
# [13] = target: GlcNAc(b1-2)Man(a1-3)[GlcNAc(b1-4)][GlcNAc(b1-2)Man(a1-6)]Man(b1-4)GlcNAc(b1-4)[Fuc(a1-6)]GlcNAc
# Summary of the method: as §1
# [14] = target: GlcNAc(b1-2)[GlcNAc(b1-4)]Man(a1-3)[GlcNAc(b1-2)Man(a1-6)]Man(b1-4)GlcNAc(b1-4)GlcNAc
# Summary of the method: as §1
# [15] = target: GlcNAc(b1-2)[GlcNAc(b1-4)]Man(a1-3)[GlcNAc(b1-4)][GlcNAc(b1-2)Man(a1-6)]Man(b1-4)GlcNAc(b1-4)GlcNAc
# Summary of the method: as §1
# [16] = target: GlcNAc(b1-2)[GlcNAc(b1-4)]Man(a1-3)[GlcNAc(b1-4)][GlcNAc(b1-2)[GlcNAc(b1-6)]Man(a1-6)]Man(b1-4)GlcNAc(b1-4)GlcNAc
# Summary of the method: as §1
# [17] = target: GlcNAc(b1-2)[GlcNAc(b1-4)]Man(a1-3)[GlcNAc(b1-4)][GlcNAc(b1-2)[GlcNAc(b1-6)]Man(a1-6)]Man(b1-4)GlcNAc(b1-4)[Fuc(a1-6)]GlcNAc
# Summary of the method: as §1
# [18] = target: GlcNAc(b1-2)[GlcNAc(b1-6)]Man(a1-6)[GlcNAc(b1-2)Man(a1-3)]Man(b1-4)GlcNAc(b1-4)GlcNAc
# Summary of the method: as §1
# [19] = target: GlcNAc(b1-2)[GlcNAc(b1-6)]Man(a1-6)[GlcNAc(b1-2)Man(a1-3)]Man(b1-4)GlcNAc(b1-4)[Fuc(a1-6)]GlcNAc
# Summary of the method: as §1
binder,measurement,setting,value
B1,glycan array binding signal (z-score),[1],-0.634
same,glycan array binding signal (z-score),[2],-0.059
same,glycan array binding signal (z-score),[3],2.49
same,glycan array binding signal (z-score),[4],-0.417
same,glycan array binding signal (z-score),[5],-0.259
same,glycan array binding signal (z-score),[6],-0.795
same,glycan array binding signal (z-score),[7],3.63
same,glycan array binding signal (z-score),[8],1.4
same,glycan array binding signal (z-score),[9],0.767
same,glycan array binding signal (z-score),[10],-0.657
same,glycan array binding signal (z-score),[11],0.963
same,glycan array binding signal (z-score),[12],0.053
same,glycan array binding signal (z-score),[13],0.495
same,glycan array binding signal (z-score),[14],-0.221
same,glycan array binding signal (z-score),[15],-0.63
same,glycan array binding signal (z-score),[16],1.13
same,glycan array binding signal (z-score),[17],0.136
same,glycan array binding signal (z-score),[18],-1.47
same,glycan array binding signal (z-score),[19],1.18

# Pulled one by one from the list above, two records:
binder,measurement,setting,value
B1,glycan array binding signal (z-score),[7],3.63
same,glycan array binding signal (z-score),[16],1.13
